Measurements taken from US20050164361A1, “Self-assembling-peptide-based structures and processes for controlling the self-assembly of such structures” (priority 2002, published 2005).
Not every detail of the peptide structures is certain; ends, links or a residue may be inferred. Where a SMILES comes first, the peptide text is derived from it.

Assay: Rate of fibril formation (self-assembly) as a function of metal ion content
Format: physicochemical

SMILES: CC(C)C[C@H](NC(=O)[C@H](CCCCN)NC(=O)[C@H](CCC(N)=O)NC(=O)[C@H](Cc1c[nH]cn1)NC(=O)[C@H](Cc1c[nH]cn1)NC(=O)[C@@H](NC(=O)[C@H](CCC(=O)O)NC(=O)[C@@H](N)Cc1ccc(O)cc1)C(C)C)C(=O)N[C@H](C(=O)N[C@@H](Cc1ccccc1)C(=O)N[C@@H](Cc1ccccc1)C(=O)N[C@@H](C)C(=O)O)C(C)C [Aβ(10-21)] (H-YEVHHQKLVFFA-OH)
- rate of fibril formation / self-assembly (in the absence of ZnCl2 (FIG. 5A/5B)): self-assembles at a relatively slow rate
- rate of fibril formation / self-assembly (in the presence of ZnCl2 (Zn+2) (FIG. 5A/5B)): self-assembles at a much higher rate
